Experimental data as given in PubChem BioAssay AID2685 (National Center for Advancing Translational Sciences (NCATS), 2010).
The other results are listed elsewhere or left out. These are further read-outs of the screen, such as a control signal, another cell line or another target. No call is given for them. Compounds called inactive in the main read-out are mostly missing here. Potencies come from curve fits of mixed quality, noted in brackets.

Assay: qHTS Assay for Lipid Storage Modulators in Drosophila S3 Cells;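 on cell number change: cells counted by Cell Tracker Red CMTPX staining in the red channel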
Conditions: BODIPY lipid droplet fluorescence, 18-24 h; for cell number change: measured here: cell count max response, cells fed with added oleic acid
Outline: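 Drosophila S3 cells got compounds at several concentrations plus oleic acid (400 uM solution). Laser-scanning cytometry with 488 nm excitation read lipid droplets at 500-530 nm and cells at 575-640 nm. Percent activity was relative to 20 uM Triacsin C.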

[1] = measured here: lipid fluorescence (Fed channel) AC50, cells fed with added oleic acid
[2] = measured here: cell number channel AC50, cells fed with added oleic acid

| Compound | cell number change | AC50 [1] | AC50 [2] |
| --- | --- | --- | --- |
| COc1ccc(C(=O)O/N=C2\CCCc3nonc32)cc1 | -18% | 0.146 µM [falling, full curve, poor fit] |  |
| CCOc1cc2[nH]c(=O)n(CCCC(=O)NCc3ccco3)c(=O)c2cc1OCC | -41.2% | 23.1 µM [falling, partial curve] | 18.4 µM [falling, partial curve] |
| CC(C)(C)N(Cc1ccccc1)C(=O)CCc1ccccc1 | 4.14% |  |  |
| CCN(CC)c1ccc(/C=N/Nc2nc(C)cc(=O)[nH]2)cc1 | -14.9% | 6.51 µM [rising, partial curve] | 0.291 µM [rising, full curve, poor fit] |
| CCc1cccc2c(/C=N/NC(=O)c3cccc(S(=O)(=O)Nc4ccccc4Cl)c3)c[nH]c12 | -47.8% | 14.6 µM [falling, partial curve] | 23.1 µM [falling, partial curve, poor fit] |
| CCOC(=O)C1=C(C)NC(SCC(N)=O)=C(C#N)C1c1cccs1 (stereo not drawn) |  |  | 0.58 µM [rising, full curve] |
| CC(=O)Nc1ccc(S(=O)(=O)N(C)CC(=O)OCC(=O)N2CCN(C(=O)c3ccco3)CC2)cc1 | 7.75% | 11.6 µM [rising, partial curve] |  |
| CC(NC(=O)c1cccnc1)C(c1cccs1)N1CCN(C)CC1 (stereo not drawn) | 10.1% |  |  |
| Cc1cccc(C(=O)OCC(=O)c2ccc(CC(=O)N3CCOCC3)s2)c1C | -21.5% | 2.59 µM [rising, single point] |  |
| Cc1nc2c(Cl)cccc2[nH]1 | 42.7% | 6.51 µM [falling, single point] | 32.6 µM [rising, single point] |
| Cc1ccc(OCC(=O)N(Cc2cccs2)C2CCS(=O)(=O)C2)cc1C (stereo not drawn) | 23.9% |  | 0.461 µM [rising, single point] |
| CCOC(=O)NC(=O)/C(C#N)=N\Nc1cccc(OC)c1 | -22.7% |  |  |
| Cc1ccc(Cn2c(SCC(=O)NCC3CCCO3)nc3c(sc4ccccc43)c2=O)cc1 (stereo not drawn) | 14% |  | 5.8 µM [rising, single point] |
| Cc1cccc(N/N=C/c2ccccc2O)c1 | -8.37% |  |  |
| Cc1ccc(OCC(=O)N/N=C\c2c(C)n(C)c3ccccc23)c([N+](=O)[O-])c1 | 12.9% | 6.51 µM [rising, single point] |  |
| COc1ccc(NC(=O)CSc2nnc(C3CC3)n2-c2ccccc2)cc1 |  | 6.51 µM [rising, single point] | 5.8 µM [rising, single point] |
| O=C(Cc1ccccc1[N+](=O)[O-])NC1CCN(Cc2ccccc2)CC1 | 8.5% |  |  |
| COc1ccc(CCNC(N)=S)cc1OC | 24.6% |  |  |
| Cc1ccc(/C=C2\SC(N)=NC2=O)s1 | 108% | 9.2 µM [rising, partial curve] | 10.3 µM [rising, partial curve, poor fit] |
| COc1cc(C2NC(=O)NC(C)=C2C(=O)OC(C)(C)C)ccc1OCC(=O)O (stereo not drawn) | -31.1% | 0.0164 µM [falling, full curve, poor fit] | 1.64 µM [falling, full curve, poor fit] |

| Compound | cell number change | AC50 [1] | AC50 [2] |
| --- | --- | --- | --- |
| Cc1ccc(-n2ncc3c2CC(C)(C)CC3NC(=O)CCc2ccc(=O)[nH]n2)cc1 (stereo not drawn) | 31.3% | 2.31 µM [rising, single point] | 9.2 µM [rising, partial curve, poor fit] |
| CCOC(=O)N1CCN(S(=O)(=O)c2ccc(OCC(=O)OC)c(C)c2)CC1 | -19.4% |  | 0.651 µM [falling, full curve, poor fit] |
| O=C(Nc1cc(S(=O)(=O)N2CCOCC2)ccc1N1CCCC1)C1COc2ccccc2O1 (stereo not drawn) | 22.7% | 0.651 µM [rising, single point] | 4.11 µM [rising, partial curve, poor fit] |
| COc1ccc(N(CC(=O)Nc2ccccc2C(=O)N2CCCC2)S(=O)(=O)c2ccccc2)cc1 | -2.93% |  |  |
| CCOC(=O)C1CCN(c2cc3c(cc2NC(=O)c2ccccc2)n(C)c(=O)n3C)CC1 |  | 6.51 µM [falling, single point] |  |
| O=C(COc1ccccc1[N+](=O)[O-])N1CCN(c2ccccn2)CC1 | -22.5% |  |  |
| CC1CCCC(NC(=O)COC(=O)CCSc2ccccc2)C1C (stereo not drawn) | 4.75% |  |  |
| CCOC(=O)c1cnc(SCC(=O)Nc2cc(C(F)(F)F)ccc2N2CCOCC2)nc1N | -18.7% | 1.3 µM [rising, partial curve] |  |
| COc1ccc(-c2cc(-c3cccs3)c(C#N)c(SCC(=O)NCc3ccccc3OC)n2)cc1 | 1.14% | 6.51 µM [falling, partial curve] |  |
| COc1ccc(C(=O)Oc2ccc(C(=S)N3CCCC3)cc2)cc1OC | -33.3% | 2.91 µM [rising, single point] | 0.731 µM [falling, full curve, poor fit] |
| COc1ccc(-c2nc(CSCC(=O)N3CCN(C)CC3)c(C)o2)cc1OC | 25.1% | 1.03 µM [rising, full curve] | 0.411 µM [rising, full curve, poor fit] |
| Cc1cccc(N2CCN(C(=O)c3ccc4c(c3)NC(=O)C(CSCc3ccc(F)cc3)N4)CC2C)c1 (stereo not drawn) | 34.3% |  |  |
| Cn1ccc(-c2cc(C(=O)O)c3ccccc3n2)n1 | 3.69% | 2.06 µM [rising, partial curve, poor fit] | 1.46 µM [rising, partial curve] |
| COc1ccccc1NC(=S)NCCc1ccc(F)cc1 | -32.5% |  | 0.092 µM [falling, full curve, poor fit] |
| CCOc1cc(/C=N/NC(=O)c2ccc(CN3CCOCC3)cc2)ccc1OCc1ccccc1 | 37.4% | 0.58 µM [rising, full curve] | 29.1 µM [rising, single point] |
| CCOC(=O)c1c(-c2ccccc2Cl)csc1NC(=O)CSc1nc(C)cc(=O)[nH]1 | 28.8% |  |  |
| O=C(COc1cc(Cl)c(Cl)cc1Cl)Nc1ccncc1 | -105% | 29.1 µM [falling, single point] | 29.1 µM [falling, single point] |
| CCOc1cc(-c2noc(CCC(=O)NCCc3ccccc3)n2)ccc1OC | -25.3% | 29.1 µM [falling, single point] |  |
| O=C1Nc2cc(C(=O)NCCCN3CCCC3)ccc2S/C1=C/c1ccccc1F | 12.7% |  | 0.259 µM [rising, full curve, poor fit] |

Part of the list above, in CSV form:
Compound,cell number change,AC50 [1],AC50 [2]
Cc1ccc(-n2ncc3c2CC(C)(C)CC3NC(=O)CCc2ccc(=O)[nH]n2)cc1 (stereo not drawn),31.3%,"2.31 µM [rising, single point]","9.2 µM [rising, partial curve, poor fit]"
CCOC(=O)N1CCN(S(=O)(=O)c2ccc(OCC(=O)OC)c(C)c2)CC1,-19.4%,,"0.651 µM [falling, full curve, poor fit]"
O=C(Nc1cc(S(=O)(=O)N2CCOCC2)ccc1N1CCCC1)C1COc2ccccc2O1 (stereo not drawn),22.7%,"0.651 µM [rising, single point]","4.11 µM [rising, partial curve, poor fit]"
COc1ccc(N(CC(=O)Nc2ccccc2C(=O)N2CCCC2)S(=O)(=O)c2ccccc2)cc1,-2.93%,,
CCOC(=O)C1CCN(c2cc3c(cc2NC(=O)c2ccccc2)n(C)c(=O)n3C)CC1,,"6.51 µM [falling, single point]",
O=C(COc1ccccc1[N+](=O)[O-])N1CCN(c2ccccn2)CC1,-22.5%,,
CC1CCCC(NC(=O)COC(=O)CCSc2ccccc2)C1C (stereo not drawn),4.75%,,
CCOC(=O)c1cnc(SCC(=O)Nc2cc(C(F)(F)F)ccc2N2CCOCC2)nc1N,-18.7%,"1.3 µM [rising, partial curve]",
COc1ccc(-c2cc(-c3cccs3)c(C#N)c(SCC(=O)NCc3ccccc3OC)n2)cc1,1.14%,"6.51 µM [falling, partial curve]",
COc1ccc(C(=O)Oc2ccc(C(=S)N3CCCC3)cc2)cc1OC,-33.3%,"2.91 µM [rising, single point]","0.731 µM [falling, full curve, poor fit]"
COc1ccc(-c2nc(CSCC(=O)N3CCN(C)CC3)c(C)o2)cc1OC,25.1%,"1.03 µM [rising, full curve]","0.411 µM [rising, full curve, poor fit]"
Cc1cccc(N2CCN(C(=O)c3ccc4c(c3)NC(=O)C(CSCc3ccc(F)cc3)N4)CC2C)c1 (stereo not drawn),34.3%,,
Cn1ccc(-c2cc(C(=O)O)c3ccccc3n2)n1,3.69%,"2.06 µM [rising, partial curve, poor fit]","1.46 µM [rising, partial curve]"
COc1ccccc1NC(=S)NCCc1ccc(F)cc1,-32.5%,,"0.092 µM [falling, full curve, poor fit]"

The results go on:

| Compound | cell number change | AC50 [1] | AC50 [2] |
| --- | --- | --- | --- |
| CCCOc1ccccc1N/C(=N/c1nc(C)cc(C)n1)NC(=O)COc1ccc(OC)cc1 | -116% |  | 11.6 µM [falling, partial curve, poor fit] |
| CC1(C)C=C(c2ccc(C=O)s2)CC(C)(C)N1 | -46.8% | 3.26 µM [falling, partial curve] | 32.6 µM [falling, partial curve, poor fit] |
| CC1CCCN(CCCNC(=O)c2ccc(NC(=O)C3=CSCCO3)cc2)C1 (stereo not drawn) |  | 0.82 µM [falling, full curve, poor fit] |  |
| CCc1ccccc1N(C(=O)c1snc(C(N)=O)c1N)C(C(=O)NCC1CCCO1)c1c[nH]c2ccccc12 (stereo not drawn) | 19.7% |  | 0.461 µM [rising, partial curve, poor fit] |
| O=C(c1ccccc1F)N1CCN(CC2CC3C=CC2C3)CC1 (stereo not drawn) | -2.18% | 0.411 µM [falling, single point] |  |
| CCN1C(=O)/C(=C/C=C2/Sc3ccccc3N2CCO)SC1=S | -9.29% | 16.4 µM [falling, partial curve] |  |
| Cc1cc(C)cc(NC(=O)c2cccnc2)c1 | -5.56% |  |  |
| COc1cccc(/C=N\n2c(C)nnc2C)c1OC | 7.06% | 7.31 µM [rising, partial curve] |  |
| Cc1ccc(S(=O)(=O)N2CCOC23CCN(S(=O)(=O)c2c(C)cc(C)cc2C)CC3)cc1 | -36% |  |  |
| CCc1ccccc1NC(=O)CSc1nnc([C@@H](N)Cc2ccccc2)o1 | -15.9% | 9.2 µM [rising, partial curve] |  |
| O=C(N/N=C/c1cc([N+](=O)[O-])ccc1O)/C(=C\c1cccs1)NC(=O)c1ccccc1 | -37.1% | 0.00461 µM [falling, full curve, poor fit] | 20.6 µM [falling, partial curve] |
| Cc1ccc2c(CNCc3ccccc3)cc(=O)oc2c1 | -6.67% | 1.16 µM [rising, single point] |  |
| Cc1cc(C)cc(NC(=O)[C@H](NC(=O)[C@@H]2Cc3ccccc3CN2)c2ccccc2)c1 | -0.472% | 6.51 µM [rising, single point] |  |
| CCCCN(C)C(=O)C1CCC(CNS(=O)(=O)c2ccc3c(c2)CC(C)N3C(=O)C2CC2)CC1 (stereo not drawn) | -41.1% | 4.61 µM [falling, single point] | 16.4 µM [falling, single point] |
| COc1ccccc1CNC(=O)COC(=O)COc1ccccc1Cc1ccccc1 | -29.5% |  |  |
| O=S(=O)(N/N=C1/CCCc2ccccc21)c1ccc(Br)cc1 | -26.7% | 29.1 µM [falling, single point] |  |
| COC(=O)C1CN(S(=O)(=O)c2ccc(C)cc2)CCN1S(=O)(=O)c1ccc(C)cc1 (stereo not drawn) | -2.53% |  |  |
| COC(=O)[C@@]1(Cc2ccccc2)[C@@H]2C(=CC(=O)[C@H]2CC(=O)C(=O)N(C)C)CN1C(=O)c1ccccc1 | -6.55% | 0.116 µM [falling, full curve] |  |
